Measured values from US20060178342A1, “Hyaluronan as a cytotoxic agent, drug pre-sensitizer and chemo-sensitizer in the treatment of disease” (priority 2001, published 2006).
Some results were stated once for a whole list of compounds, not compound by compound.

Test system: MDA-MB-468 human breast carcinoma xenografts
Test: 6-week efficacy study of HA ± 5-FU in nude mouse xenografts
Format: in vivo
Settings: 6-week study; saline group 6-fold higher
Experimental: From the results in Example 2 the carcinoma cell line MDA-MB-468 was selected as the cancer cell inoculant for the generation of any nude mouse human tumour xenografts. Cells were routinely grown and subcultured as a previously described in Example 2. For injection into mice, cells were grown to 100% confluency, trypsinised in 0.025% trypsin/0.01% EDTA solution, washed twice by centrifugation in a Beckman TJ-6 bench centrifuge at 400 gav for 10 min, counted using a Model-ZM Coulter counter and resuspended in serum-free Leibovitz L-15 medium at 1×10^8 cells/ml. […]
Individual injections of 5-FU were prepared according to individual mouse masses, with the aim of delivering 30 mg/kg 5-FU in 50 μl (equivalent to human therapeutic dose of 10.5 mg/kg for a mean body weight of 60 kg; Inaba et al, 1988). […] With this quantity of HA injected into the body, saturation kinetics would be observed for the period of the experimentation (Fraser et al, 1983). […]
Animals were weighed and tumour volumes measured on the day of treatment application for long term study. In the 6-week study animals were weighed and tumour volumes measured on a daily basis. […]
Tumour volume was monitored on a daily or weekly basis by caliper measurements and tumour volume calculated as previously described.

**Q.** With hyaluronan [HA] as the substance, how does the “percentage of lymph node involvement (metastatic nodes per animal)” value read?
**A.** 12.2-14.3%
